Here are results for 60 compounds from PubChem BioAssay AID2685 (National Center for Advancing Translational Sciences (NCATS), 2010).

Some of the results follow. These are further read-outs of the screen, such as a control signal, another cell line or another target. No call is given for them. Compounds called inactive in the main read-out are mostly missing here. Words in brackets tell the shape of the fitted curve; partial curves, single points and poor fits give uncertain potencies.

The test can be described thus: qHTS Assay for Lipid Storage Modulators in Drosophila S3 Cells.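 For cell number change: cells counted by Cell Tracker Red CMTPX staining in the red channel.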 Conditions: BODIPY lipid droplet fluorescence, 18-24 h; for cell number change: measured here: cell count max response, cells fed with added oleic acid. The gist of the method:
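Laser-scanning cytometry quantifies lipid droplet accumulation (500–530 nm total intensity; droplet/cell object ratio) in oleic acid-fed (400 uM added) Drosophila S3 cells treated with a concentration series. 20 uM Triacsin C defined 100% inhibition.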
(In general: Quantitative high-throughput screening tests each substance at several concentrations.)

[1] abbreviates: measured here: lipid fluorescence (Fed channel) AC50, cells fed with added oleic acid.
Setting [2] is: measured here: cell number channel AC50, cells fed with added oleic acid.

In the case of `CCOCCCNC(=O)CN1CCN(c2ccc(F)cc2)CC1`, the cell number change was 4.08%. As for `COc1ccc(C(=O)COC(=O)c2cc3ccccc3oc2=O)c(OC)c1`, the cell number change is -12.1%. Further, the half-maximal activity concentration (AC50) (in general, the midpoint of the concentration-response curve, whichever way the signal moves) under setting [1] was 0.58 µM [falling, full curve]. On to `O=S(=O)(NC1=NCCCCC1)c1cccs1`, for which the cell number change is -1.17%. Regarding `O=C(CSc1ccccc1)OCC(=O)N1CCN(C(=O)c2ccco2)CC1`, the cell number change is 7.21%. Under setting [2], the AC50 was 4.11 µM [falling, single point]. Also, the half-maximal activity concentration (AC50) under setting [1] is 4.61 µM [falling, single point].

For the compound `Cc1cc(F)ccc1NC(=O)c1cc(S(=O)(=O)N2CCc3ccccc32)cn1C`, the cell number change was determined as 15.6%. The concentration at half-maximal activity (AC50) under setting [1] is 4.61 µM [rising, full curve, poor fit]. With `CCCCCOc1ccc(/C(C)=N/NC2=NCCN2)cc1`, the cell number change was found to be 1.1%. On to `c1ccc2c(c1)CCOC2CNCCCN1CCCCC1` (configuration not stated), for which the cell number change worked out at 0.261%. The AC50 under setting [1] is 0.461 µM [falling, single point].

Regarding `CCCn1c(=O)c(C(=O)NCc2cccnc2)c(O)c2ccccc21`, the cell number change worked out at 38.6%. The AC50 under setting [2] was 1.64 µM [rising, full curve, poor fit].

On to `Cc1ccc(S(=O)(=O)NCc2ccncc2)cc1C`, for which the cell number change was -45.1%. Moreover, the AC50 under setting [2] is 8.2 µM [falling, partial curve]. For the same compound, the AC50 under setting [1] is 9.2 µM [falling, partial curve].

`Cc1c(C(=O)NCc2ccccn2)oc2ccc(Br)cc12`: the half-maximal activity concentration (AC50) under setting [1] is 0.0326 µM [rising, full curve, poor fit]. For the compound `CC(C)c1ccc(CN(C(=O)c2cc3ccccc3oc2=O)C2CCS(=O)(=O)C2)cc1` (configuration not stated), the cell number change came out at 33.7%. The concentration at half-maximal activity (AC50) under setting [2] was 3.26 µM [rising, full curve, poor fit]. Regarding `Cc1cc(C(F)(F)F)n2ncc(-c3ccc(F)cc3)c2n1`, the cell number change turned out to be 109%. Moreover, the concentration at half-maximal activity (AC50) under setting [2] is 5.17 µM [rising, full curve]. Moreover, under setting [1], the AC50 is 2.31 µM [rising, partial curve]. Turning to `CC12CC3(C)CC(C)(C1)CC(C(=O)NC(=S)NC(C)(C)C)(C2)C3`, the cell number change was -25.3%. In addition, the AC50 under setting [1] is 1.16 µM [rising, full curve]. With `CCCN(Cc1ccccc1)C(=S)Nc1cccc(C(F)(F)F)c1`, the cell number change was 30.1%. Further, the AC50 under setting [2] is 18.4 µM [rising, single point]. With `O=C(Nc1ccc2c(c1)OCO2)c1cccc(Cl)c1`, the cell number change was found to be 4.52%. The half-maximal activity concentration (AC50) under setting [1] was 18.4 µM [rising, partial curve]. In the case of `CC(=O)c1ccc(OCCCC(=O)Nc2cc(S(=O)(=O)N3CCCCC3)ccc2C)cc1`, the concentration at half-maximal activity (AC50) under setting [2] is 0.291 µM [rising, partial curve, poor fit].

For `Clc1ccccc1Cn1nnc2c(NCC3CC3)ncnc21`, the cell number change was -21.5%. For the same compound, under setting [1], the concentration at half-maximal activity (AC50) is 18.4 µM [falling, single point]. `C=CCCC(=O)N1CCCC(Cc2cccc(Cl)c2)(C(=O)OCC)C1` (configuration not stated): the cell number change was 20.3%. Consider `COc1ccc(C(C(=O)NC2CCCC2)N(C(=O)c2snc(C(N)=O)c2N)c2ccccc2OC)cc1OC` (configuration not stated), for which the cell number change was -10.3%. The AC50 under setting [1] is 29.1 µM [falling, single point]. As to `CCCCN1/C(=C/c2ccc3ccccc3[n+]2CC)Sc2ccccc21`, the cell number change was -49.8%. Under setting [2], the AC50 was 10.3 µM [falling, partial curve]. Moreover, under setting [1], the half-maximal activity concentration (AC50) is 3.26 µM [falling, full curve]. Take `CC1CN(C(=S)Nc2ccc(Cl)cc2)CC(C)O1` (configuration not stated): the cell number change is -6.08%. For `CCN1C(=O)c2ccc(C(=O)Nc3nccs3)cc2C1=O`, under setting [1], the AC50 is 6.51 µM [rising, single point]. On to `CCn1c(CCC(=O)Nc2cc(F)ccc2C)nc2cc(S(=O)(=O)N(C)C)ccc21`, for which the cell number change came to 7.76%. In addition, the AC50 under setting [2] was 0.0517 µM [rising, full curve, poor fit]. For the same compound, the half-maximal activity concentration (AC50) under setting [1] was 0.0731 µM [rising, full curve, poor fit]. On to `O=P(c1ccccc1)(c1ccccc1)c1ccc(O)cc1`, for which the cell number change was determined as 26.4%. For `Cc1cc(NC(=O)CS(=O)(=O)c2cn(C)c3ccccc23)no1`, the cell number change was found to be 5.15%. The AC50 under setting [1] is 0.13 µM [falling, full curve, poor fit]. As to `COc1cc(/C=C2\SC(=Nc3c(C)n(C)n(-c4ccccc4)c3=O)NC2=O)ccc1O`, the cell number change is 12.3%. Further, under setting [1], the AC50 was 4.11 µM [rising, full curve, poor fit]. Consider `COc1ccccc1/C=C/C(=O)NCC(=O)N/N=C(/C)c1ccc(Cl)cc1`, for which the cell number change is -1.79%. Also, the AC50 under setting [1] was 1.16 µM [rising, full curve]. Turning to `COc1cccc(NC(=O)COC(=O)c2cc(S(=O)(=O)N3CCOCC3)ccc2C)c1`, the cell number change is 110%. For the same compound, the half-maximal activity concentration (AC50) under setting [2] was 0.00461 µM [rising, full curve, poor fit]. Consider `CN(C(=O)CSc1nnc(C(F)(F)F)n1N)C1CCS(=O)(=O)C1` (configuration not stated), for which the cell number change was -21.6%. Also, the AC50 under setting [1] was 20.6 µM [falling, single point]. For `Cc1cc(-c2nnc3n2N=C(c2ccc(F)cc2)CS3)n[nH]1`, the AC50 is, setting by setting: under setting [2], 6.51 µM [rising, single point]; under setting [1], 1.84 µM [rising, partial curve, poor fit]. As to `CN(C)S(=O)(=O)c1ccc(C(=O)OCCCN=C2NS(=O)(=O)c3ccccc32)cc1`, the cell number change was -24.5%. Besides, the AC50 under setting [1] was 4.61 µM [falling, single point]. On to `O=C(CO/N=C/c1ccc(OC(F)F)cc1)NCc1ccco1`, for which the cell number change was -15%. The AC50 under setting [1] was 0.58 µM [falling, full curve]. For `Cc1ccsc1/C=N/n1c(C2CCCCC2)n[nH]c1=S`, the cell number change is -55.4%. The half-maximal activity concentration (AC50) under setting [2] is 13 µM [falling, partial curve]. Under setting [1], the AC50 was 13 µM [falling, partial curve]. As to `O=C(Nc1ccc(-c2cn3ccsc3n2)cc1)c1ccc(F)c(S(=O)(=O)N2CCOCC2)c1`, the AC50 is, setting by setting: under setting [2], 1.46 µM [rising, partial curve]; under setting [1], 0.731 µM [rising, full curve].

As to `Cc1ccc(-c2nc(CS(=O)CC(=O)NCc3ccc(Cl)cc3)c(C)o2)cc1` (configuration not stated), the cell number change was -35%. For the same compound, the AC50 under setting [2] was 29.1 µM [falling, single point]. Besides, under setting [1], the AC50 is 29.1 µM [falling, single point]. Take `O=C(COc1ccccc1Cl)NCCCNC(=O)c1cnccn1`: the cell number change turned out to be 32.9%. Also, the AC50 under setting [2] was 3.66 µM [rising, full curve, poor fit]. Consider `Cc1cc(C)c(NS(=O)(=O)c2ccc(Cl)c(C(=O)O)c2)c(C)c1`, for which the cell number change was 2.43%. In addition, the AC50 under setting [1] was 0.0651 µM [rising, full curve, poor fit]. For the compound `COc1ccc(C(=O)Nc2nc(CC(=O)NCCc3ccccc3OC)cs2)cc1`, under setting [2], the AC50 was 6.51 µM [rising, single point]. On to `COc1ccc(-c2nn(-c3ccccc3)cc2C(=O)O)cc1N`, for which the cell number change was -0.825%. Besides, under setting [1], the AC50 was 6.51 µM [falling, single point].

With `O=C(CCCC(=O)NCc1ccccc1)NCc1ccccc1`, the cell number change is -9.91%. The half-maximal activity concentration (AC50) under setting [1] is 23.1 µM [falling, partial curve, poor fit]. Regarding `COc1ccc(/C=N/Nc2ncc(Br)cn2)c(OC)c1`, the cell number change was -43%. Also, the AC50 under setting [2] is 11.6 µM [falling, partial curve]. `COC(=O)C1=C(C(=O)OC)[C@@H]2Nc3ccccc3[C@@]23C[C@@H](C(=O)OC)N=C3N1`: the cell number change is -11.9%.

Take `O=C(c1ccc2c(=O)n(Cc3ccccc3Cl)c(=S)[nH]c2c1)N1CCOCC1`: the cell number change turned out to be 11.6%. For the same compound, the AC50 under setting [1] is 23.1 µM [rising, partial curve]. Take `CCOc1ccccc1N1CC(C(=O)Nc2ccccc2N2CCOCC2)CC1=O` (configuration not stated): the cell number change was 0.115%. Moreover, the concentration at half-maximal activity (AC50) under setting [1] was 6.51 µM [rising, single point]. Turning to `Cc1ccnc(NC(=O)c2ccc(Cl)c(NC(=O)c3ccccc3C)c2)c1`, the concentration at half-maximal activity (AC50) under setting [1] was 29.1 µM [falling, single point]. On to `O=C(NC1CC1)c1sc2cc([N+](=O)[O-])ccc2c1Cl`, for which the cell number change was -14.2%. Under setting [2], the concentration at half-maximal activity (AC50) is 0.461 µM [falling, single point]. Moreover, the AC50 under setting [1] was 0.517 µM [falling, full curve, poor fit].

On to `COc1ccc(CC(=O)c2ccc(OC)c(OC)c2)cc1`, for which, under setting [1], the AC50 was 2.31 µM [rising, full curve, poor fit]. As to `CC(=O)N1CCOc2ccc(S(=O)(=O)Nc3ccc(C)cn3)cc21`, the concentration at half-maximal activity (AC50) under setting [1] is 0.231 µM [falling, full curve, poor fit]. Turning to `CCCNC(=O)CSc1nc2ccc(OCC)cc2s1`, the cell number change stood at 37.7%. For the same compound, under setting [2], the half-maximal activity concentration (AC50) was 9.2 µM [rising, partial curve, poor fit]. Regarding `COc1ccc2c(C)nc(Nc3nc(C)c(C)c(=O)[nH]3)nc2c1`, the cell number change is -7.61%. The AC50 under setting [1] is 20.6 µM [falling, partial curve, poor fit]. With `Cc1ccc(S(=O)(=O)N2CCC(C(=O)NCc3ccccc3Cl)CC2)cc1`, the cell number change was determined as 87.3%. Also, the concentration at half-maximal activity (AC50) under setting [2] was 16.4 µM [rising, partial curve].

Regarding `OCc1cc(-c2ccccn2)no1`, the cell number change is -4.59%. The half-maximal activity concentration (AC50) under setting [1] was 0.092 µM [falling, full curve, poor fit]. Consider `O=C(COc1ccccc1)N1CCN=C1SCc1ccc(F)cc1`, for which the AC50 under setting [2] was 2.31 µM [rising, single point]. On to `O=C(NCC1CCCO1)c1nn2c(C(F)(F)F)cc(-c3ccc(Br)o3)nc2c1Br` (configuration not stated), for which the cell number change is -14.3%. In addition, the AC50 under setting [1] was 0.206 µM [rising, single point]. With `O=C(NNc1ccccc1)/C(=C\c1cccnc1)NC(=O)c1ccccc1`, the cell number change is -33.8%. The AC50 under setting [2] was 14.6 µM [falling, partial curve]. As to `Cc1ccc(S(=O)(=O)NC2CC(C)(C)NC(C)(C)C2)c(C)c1C`, the cell number change is -5.47%. Under setting [1], the concentration at half-maximal activity (AC50) is 29.1 µM [rising, single point].

As to `CC(C)=NNc1nc2sc3c(c2c(=O)[nH]1)CC(C)(C)OC3`, the cell number change is -8.82%. Moreover, the concentration at half-maximal activity (AC50) under setting [1] was 0.58 µM [falling, partial curve, poor fit]. Take `COc1ccc([C@@H](NC(=O)OC(C)(C)C)C(=O)OC(C)(C)C)cc1`: the cell number change was -8.84%. As to `O=C(NC(=S)N1CCN(c2ccc(F)cc2)CC1)C12CC3CC(CC(C3)C1)C2`, the cell number change is -66.7%. For the same compound, under setting [2], the half-maximal activity concentration (AC50) is 29.1 µM [falling, single point]. The AC50 under setting [1] was 0.231 µM [falling, full curve, poor fit]. On to `Cc1ccc(C(C(=O)NCc2ccco2)N(C(=O)CNC(=O)c2cccs2)c2ccc(C)cc2C)cc1` (configuration not stated), for which the cell number change was 40.8%.
